{"sequences": {"note": "Amino acid sequences for entries named in this document (tags omitted). A change or cut given only in a name is not applied to a line headed by its entry.", "UniProt P31350, whole entry, looked up": "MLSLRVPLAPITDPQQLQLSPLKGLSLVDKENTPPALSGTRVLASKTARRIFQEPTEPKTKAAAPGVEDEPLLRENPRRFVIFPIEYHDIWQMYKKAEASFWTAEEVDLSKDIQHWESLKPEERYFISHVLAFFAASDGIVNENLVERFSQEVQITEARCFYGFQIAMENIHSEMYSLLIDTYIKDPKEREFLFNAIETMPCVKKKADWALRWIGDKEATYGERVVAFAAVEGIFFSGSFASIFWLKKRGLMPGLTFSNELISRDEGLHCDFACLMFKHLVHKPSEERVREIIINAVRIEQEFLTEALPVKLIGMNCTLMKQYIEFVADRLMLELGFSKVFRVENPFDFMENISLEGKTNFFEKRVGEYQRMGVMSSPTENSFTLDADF", "UniProt Q9Y265, whole entry, looked up": "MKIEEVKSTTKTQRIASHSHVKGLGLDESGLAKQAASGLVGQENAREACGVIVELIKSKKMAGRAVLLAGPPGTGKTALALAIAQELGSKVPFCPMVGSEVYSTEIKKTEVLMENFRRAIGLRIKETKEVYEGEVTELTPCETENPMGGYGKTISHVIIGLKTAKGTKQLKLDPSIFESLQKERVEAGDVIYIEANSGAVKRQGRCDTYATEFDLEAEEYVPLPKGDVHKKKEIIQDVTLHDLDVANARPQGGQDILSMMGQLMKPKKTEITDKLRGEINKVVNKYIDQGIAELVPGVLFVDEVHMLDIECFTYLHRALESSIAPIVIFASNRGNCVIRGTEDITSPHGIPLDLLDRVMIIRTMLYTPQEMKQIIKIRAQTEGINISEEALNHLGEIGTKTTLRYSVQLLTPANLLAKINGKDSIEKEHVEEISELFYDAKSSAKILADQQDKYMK", "UniProt O75818": "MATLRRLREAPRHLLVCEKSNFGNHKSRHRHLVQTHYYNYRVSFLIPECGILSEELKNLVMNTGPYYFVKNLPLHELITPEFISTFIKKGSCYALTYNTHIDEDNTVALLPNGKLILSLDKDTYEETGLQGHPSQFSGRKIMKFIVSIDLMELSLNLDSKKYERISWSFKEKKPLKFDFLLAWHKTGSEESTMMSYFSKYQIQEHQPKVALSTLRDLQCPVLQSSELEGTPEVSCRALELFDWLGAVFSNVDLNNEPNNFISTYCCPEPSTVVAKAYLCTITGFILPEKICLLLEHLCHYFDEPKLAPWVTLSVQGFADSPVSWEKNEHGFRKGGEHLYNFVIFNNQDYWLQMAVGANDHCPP", "UniProt Q96C34": "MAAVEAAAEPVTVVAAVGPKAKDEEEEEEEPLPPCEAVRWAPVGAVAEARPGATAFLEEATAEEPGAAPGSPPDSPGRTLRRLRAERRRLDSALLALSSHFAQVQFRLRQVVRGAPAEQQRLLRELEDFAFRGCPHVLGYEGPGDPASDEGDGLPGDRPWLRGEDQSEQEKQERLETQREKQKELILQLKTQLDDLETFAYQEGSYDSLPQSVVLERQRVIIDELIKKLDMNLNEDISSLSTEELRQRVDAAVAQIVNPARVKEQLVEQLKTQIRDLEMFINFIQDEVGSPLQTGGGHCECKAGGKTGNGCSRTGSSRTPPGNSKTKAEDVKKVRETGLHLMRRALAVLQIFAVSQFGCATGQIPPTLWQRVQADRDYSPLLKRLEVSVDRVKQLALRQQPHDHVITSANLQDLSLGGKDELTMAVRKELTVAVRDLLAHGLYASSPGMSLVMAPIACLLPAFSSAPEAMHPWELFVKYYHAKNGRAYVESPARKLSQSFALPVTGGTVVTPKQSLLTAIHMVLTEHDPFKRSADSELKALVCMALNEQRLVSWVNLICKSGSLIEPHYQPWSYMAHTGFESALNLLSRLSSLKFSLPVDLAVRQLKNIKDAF", "UniProt O95197": "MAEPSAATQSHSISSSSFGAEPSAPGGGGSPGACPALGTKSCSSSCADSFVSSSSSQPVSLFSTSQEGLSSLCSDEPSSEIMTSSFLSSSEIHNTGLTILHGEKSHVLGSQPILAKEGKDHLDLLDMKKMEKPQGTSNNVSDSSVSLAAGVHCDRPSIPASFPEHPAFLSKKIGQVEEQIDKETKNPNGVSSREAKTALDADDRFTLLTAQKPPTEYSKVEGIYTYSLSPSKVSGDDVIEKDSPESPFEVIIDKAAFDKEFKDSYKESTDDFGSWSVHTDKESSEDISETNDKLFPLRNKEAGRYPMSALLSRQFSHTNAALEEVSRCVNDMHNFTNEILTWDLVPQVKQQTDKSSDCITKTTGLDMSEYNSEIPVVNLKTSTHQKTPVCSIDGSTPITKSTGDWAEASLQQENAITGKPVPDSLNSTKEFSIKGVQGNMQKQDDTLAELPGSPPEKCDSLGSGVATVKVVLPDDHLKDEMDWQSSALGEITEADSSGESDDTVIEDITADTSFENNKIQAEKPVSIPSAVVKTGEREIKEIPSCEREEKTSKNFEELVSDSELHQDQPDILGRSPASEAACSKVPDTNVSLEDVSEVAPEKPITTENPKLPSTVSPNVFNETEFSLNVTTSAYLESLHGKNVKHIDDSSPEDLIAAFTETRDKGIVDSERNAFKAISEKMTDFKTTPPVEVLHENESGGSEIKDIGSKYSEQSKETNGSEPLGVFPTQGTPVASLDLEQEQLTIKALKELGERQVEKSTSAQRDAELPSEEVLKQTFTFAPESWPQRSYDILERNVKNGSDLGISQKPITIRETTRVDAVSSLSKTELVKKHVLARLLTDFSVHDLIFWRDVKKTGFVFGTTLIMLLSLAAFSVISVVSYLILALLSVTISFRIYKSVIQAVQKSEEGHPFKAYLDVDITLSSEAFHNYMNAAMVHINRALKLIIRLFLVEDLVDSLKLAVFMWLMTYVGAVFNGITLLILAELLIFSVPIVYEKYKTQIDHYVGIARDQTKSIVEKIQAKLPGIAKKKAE", "UniProt Q5K651": "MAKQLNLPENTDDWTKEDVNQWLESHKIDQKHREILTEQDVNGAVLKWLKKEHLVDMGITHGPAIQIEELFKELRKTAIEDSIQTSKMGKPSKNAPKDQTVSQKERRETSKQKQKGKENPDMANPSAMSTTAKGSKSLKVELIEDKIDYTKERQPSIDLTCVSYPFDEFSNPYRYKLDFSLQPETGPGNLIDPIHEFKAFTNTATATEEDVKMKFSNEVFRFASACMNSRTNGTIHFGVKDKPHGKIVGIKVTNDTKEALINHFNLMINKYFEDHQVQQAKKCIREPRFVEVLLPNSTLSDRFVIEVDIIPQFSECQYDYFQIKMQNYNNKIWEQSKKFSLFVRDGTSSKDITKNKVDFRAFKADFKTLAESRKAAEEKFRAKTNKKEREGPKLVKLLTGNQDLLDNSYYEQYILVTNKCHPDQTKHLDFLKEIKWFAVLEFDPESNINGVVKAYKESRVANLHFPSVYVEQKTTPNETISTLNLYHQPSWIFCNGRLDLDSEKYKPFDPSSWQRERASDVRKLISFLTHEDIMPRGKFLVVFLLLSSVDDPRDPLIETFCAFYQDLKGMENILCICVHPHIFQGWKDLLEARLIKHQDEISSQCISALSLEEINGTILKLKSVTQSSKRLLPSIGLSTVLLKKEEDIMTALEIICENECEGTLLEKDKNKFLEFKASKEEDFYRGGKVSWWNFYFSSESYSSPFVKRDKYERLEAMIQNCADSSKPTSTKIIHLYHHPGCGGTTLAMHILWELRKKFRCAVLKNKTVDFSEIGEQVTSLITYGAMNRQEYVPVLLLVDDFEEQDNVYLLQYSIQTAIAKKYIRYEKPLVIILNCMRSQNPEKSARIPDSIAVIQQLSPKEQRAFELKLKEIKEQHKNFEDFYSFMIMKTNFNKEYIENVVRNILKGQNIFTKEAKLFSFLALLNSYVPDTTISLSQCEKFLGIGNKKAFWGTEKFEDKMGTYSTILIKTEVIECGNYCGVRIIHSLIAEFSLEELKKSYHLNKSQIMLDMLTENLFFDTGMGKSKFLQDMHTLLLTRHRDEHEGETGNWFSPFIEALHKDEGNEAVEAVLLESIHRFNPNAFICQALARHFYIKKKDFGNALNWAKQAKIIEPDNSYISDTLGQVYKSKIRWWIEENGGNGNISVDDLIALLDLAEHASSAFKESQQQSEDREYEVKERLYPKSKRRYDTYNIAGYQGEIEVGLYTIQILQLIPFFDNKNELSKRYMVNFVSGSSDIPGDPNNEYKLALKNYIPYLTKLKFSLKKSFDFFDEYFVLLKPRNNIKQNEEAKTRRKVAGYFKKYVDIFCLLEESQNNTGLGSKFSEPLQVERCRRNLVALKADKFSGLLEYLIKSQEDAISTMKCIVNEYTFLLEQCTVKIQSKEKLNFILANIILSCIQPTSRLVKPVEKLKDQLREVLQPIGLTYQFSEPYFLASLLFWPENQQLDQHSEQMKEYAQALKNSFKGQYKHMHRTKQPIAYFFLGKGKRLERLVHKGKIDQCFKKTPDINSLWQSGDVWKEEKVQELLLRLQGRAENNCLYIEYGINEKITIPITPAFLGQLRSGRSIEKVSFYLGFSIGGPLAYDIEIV", "UniProt P28702": "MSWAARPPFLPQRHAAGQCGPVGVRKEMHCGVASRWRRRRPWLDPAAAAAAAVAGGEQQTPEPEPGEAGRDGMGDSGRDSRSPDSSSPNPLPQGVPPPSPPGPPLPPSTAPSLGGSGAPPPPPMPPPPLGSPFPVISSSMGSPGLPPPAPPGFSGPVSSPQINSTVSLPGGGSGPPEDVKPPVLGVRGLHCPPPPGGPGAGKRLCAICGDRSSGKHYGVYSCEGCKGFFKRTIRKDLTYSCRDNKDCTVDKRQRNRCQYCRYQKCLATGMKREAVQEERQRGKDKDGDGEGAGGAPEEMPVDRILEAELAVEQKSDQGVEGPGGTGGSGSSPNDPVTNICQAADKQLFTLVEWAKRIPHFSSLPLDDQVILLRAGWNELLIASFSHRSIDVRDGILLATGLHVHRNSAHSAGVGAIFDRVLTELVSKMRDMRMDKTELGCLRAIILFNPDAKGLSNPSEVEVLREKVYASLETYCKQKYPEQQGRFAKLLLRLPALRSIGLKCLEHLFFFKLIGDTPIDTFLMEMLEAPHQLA", "UniProt Q8WWV3": "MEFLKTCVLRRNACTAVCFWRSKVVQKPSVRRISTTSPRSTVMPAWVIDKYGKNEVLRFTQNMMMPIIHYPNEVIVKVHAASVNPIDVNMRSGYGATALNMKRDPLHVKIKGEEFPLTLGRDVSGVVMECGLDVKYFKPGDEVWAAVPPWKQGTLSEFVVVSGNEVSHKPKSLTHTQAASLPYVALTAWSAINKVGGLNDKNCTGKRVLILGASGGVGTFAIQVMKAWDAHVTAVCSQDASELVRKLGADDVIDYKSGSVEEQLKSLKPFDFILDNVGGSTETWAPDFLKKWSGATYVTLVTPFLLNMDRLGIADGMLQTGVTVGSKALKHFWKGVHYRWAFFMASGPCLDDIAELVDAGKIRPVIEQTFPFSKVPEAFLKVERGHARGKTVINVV", "UniProt Q96P16": "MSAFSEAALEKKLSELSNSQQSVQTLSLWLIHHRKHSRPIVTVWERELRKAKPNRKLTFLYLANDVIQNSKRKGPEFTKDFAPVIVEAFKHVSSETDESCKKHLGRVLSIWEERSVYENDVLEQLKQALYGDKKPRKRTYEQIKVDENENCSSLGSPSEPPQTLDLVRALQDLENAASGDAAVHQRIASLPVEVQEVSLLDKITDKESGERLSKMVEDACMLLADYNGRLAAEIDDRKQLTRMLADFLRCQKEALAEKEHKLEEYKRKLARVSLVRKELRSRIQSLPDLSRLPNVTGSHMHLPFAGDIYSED", "UniProt O75582, whole entry, looked up": "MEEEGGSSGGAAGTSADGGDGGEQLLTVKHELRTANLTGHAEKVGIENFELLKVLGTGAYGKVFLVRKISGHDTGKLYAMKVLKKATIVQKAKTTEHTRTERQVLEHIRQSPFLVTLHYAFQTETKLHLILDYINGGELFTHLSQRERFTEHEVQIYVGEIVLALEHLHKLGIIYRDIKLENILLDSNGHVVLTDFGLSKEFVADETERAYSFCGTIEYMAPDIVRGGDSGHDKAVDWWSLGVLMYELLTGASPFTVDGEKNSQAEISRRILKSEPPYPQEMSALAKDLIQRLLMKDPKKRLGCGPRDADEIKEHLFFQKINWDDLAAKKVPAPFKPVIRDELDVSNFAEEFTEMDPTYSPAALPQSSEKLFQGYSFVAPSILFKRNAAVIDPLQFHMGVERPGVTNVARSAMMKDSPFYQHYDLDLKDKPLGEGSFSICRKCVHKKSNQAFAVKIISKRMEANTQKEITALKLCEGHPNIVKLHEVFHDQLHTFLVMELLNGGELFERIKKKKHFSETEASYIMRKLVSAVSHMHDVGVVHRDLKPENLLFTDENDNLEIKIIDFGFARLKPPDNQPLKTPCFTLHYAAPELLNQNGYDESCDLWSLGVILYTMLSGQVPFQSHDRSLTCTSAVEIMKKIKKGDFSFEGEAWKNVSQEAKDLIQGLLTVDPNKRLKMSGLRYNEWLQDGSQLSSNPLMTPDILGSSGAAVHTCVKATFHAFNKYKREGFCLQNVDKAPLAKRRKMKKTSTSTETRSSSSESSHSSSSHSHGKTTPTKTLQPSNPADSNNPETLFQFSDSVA"}, "source": "the supplement of paper PMC12067093", "about": "“Discovery and optimisation of a covalent ligand for TRIM25 and its application to targeted protein ubiquitination” (Chemical Science, 2025)", "note": "The other results are listed elsewhere or left out.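 Note: competitive chemoproteomic profiling in live THP-1 cells with an iodoacetamide desthiobiotin (IA-DTB) probe, comparing probe-labelled peptide intensities in compound-treated cells against DMSO-treated controls.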", "data": [{"compound": "CC1Cc2ccccc2N1C(=O)C1CCCN(C1)C(=O)CCl (mixture of isomers) [TRIM25 ligand 11 (diastereomer mixture)]", "assay": "probe-labelled cysteine peptide fold change vs DMSO (competition) (log2 fold change); higher = less target engagement (more negative = stronger competition)", "settings": "10 µM; THP-1; incubation time: 4 h", "values": [{"target": "SACS_Q9NZJ4_2869_AFCFLPLSLETGLPFHVNGHFALDSAR (UniProt Q9NZJ4)", "probe-labelled cysteine peptide fold change": 0.248}, {"target": "RPS2_P15880_182_IGKPHTVPCK (UniProt P15880)", "probe-labelled cysteine peptide fold change": -0.1}, {"target": "RRM2_P31350_270+274_DEGLHCDFACLMFK (UniProt P31350)", "probe-labelled cysteine peptide fold change": 0.242}, {"target": "RTN4_Q9NQC3_1101_YSNSALGHVNCTIK (UniProt Q9NQC3)", "probe-labelled cysteine peptide fold change": 0.00619}, {"target": "RPS15A_P62244_30_RQVLIRPCSK (UniProt P62244)", "probe-labelled cysteine peptide fold change": -0.184}, {"target": "SACS_Q9NZJ4_3694_QCDVLQLLWTSCPILPEK (UniProt Q9NZJ4)", "probe-labelled cysteine peptide fold change": -0.00918}, {"target": "RRAGB_Q5VZM2_280_ATFLVISHYQCK (UniProt Q5VZM2)", "probe-labelled cysteine peptide fold change": 0.0504}, {"target": "RUFY1_Q96T51_692_VCDSCHTLLLQR (UniProt Q96T51)", "probe-labelled cysteine peptide fold change": 0.114}, {"target": "RSL24D1_Q9UHA3_6_CYFCSGPIYPGHGMMFVR (UniProt Q9UHA3)", "probe-labelled cysteine peptide fold change": 0.349}, {"target": "RTF1_Q92541_373_WCHMPFFAK (UniProt Q92541)", "probe-labelled cysteine peptide fold change": -0.0618}, {"target": "RUFY1_Q96T51_81_RATGNLSASCGSALR (UniProt Q96T51)", "probe-labelled cysteine peptide fold change": -0.118}, {"target": "RUVBL1_Q9Y265_94_VPFCPMVGSEVYSTEIK (UniProt Q9Y265)", "probe-labelled cysteine peptide fold change": 0.0537}, {"target": "RPP40_O75818_49_VSFLIPECGILSEELK (UniProt O75818)", "probe-labelled cysteine peptide fold change": 0.101}, {"target": "RUFY1_Q96T51_351_ICSLQEEQQQLREQNELIR (UniProt Q96T51)", "probe-labelled cysteine peptide fold change": -0.409}, {"target": "RRM1_P23921_218_WFTHASPTLFNAGTNRPQLSSCFLLSMKDDSIEGIYDTLK (UniProt P23921)", "probe-labelled cysteine peptide fold change": 0.111}, {"target": "RUNDC1_Q96C34_311_TGNGCSR (UniProt Q96C34)", "probe-labelled cysteine peptide fold change": 0.383}, {"target": "RPS4X_P62701_41_LRECLPLIIFLR (UniProt P62701)", "probe-labelled cysteine peptide fold change": -0.09}, {"target": "RRN3_Q9NYV6_329_DVCYVDGK (UniProt Q9NYV6)", "probe-labelled cysteine peptide fold change": -0.198}, {"target": "RWDD2B_P57060_105_MAMFSLACILPFK (UniProt P57060)", "probe-labelled cysteine peptide fold change": -0.487}, {"target": "RTN3_O95197-3_46_SCSSSCAVHDLIFWR (UniProt O95197)", "probe-labelled cysteine peptide fold change": -0.00795}, {"target": "RUVBL2_Q9Y230_227_FVQCPDGELQK (UniProt Q9Y230)", "probe-labelled cysteine peptide fold change": 0.151}, {"target": "RUFY1_Q96T51_648_DDEATHCR (UniProt Q96T51)", "probe-labelled cysteine peptide fold change": -0.352}, {"target": "RPS17_P08708_35_RVCEEIAIIPSKK (UniProt P08708)", "probe-labelled cysteine peptide fold change": -0.177}, {"target": "SAMD9_Q5K651_605_HQDEISSQCISALSLEEINGTILK (UniProt Q5K651)", "probe-labelled cysteine peptide fold change": -0.00788}, {"target": "RPS4X_P62701_181_FDTGNLCMVTGGANLGR (UniProt P62701)", "probe-labelled cysteine peptide fold change": -0.102}, {"target": "RPS2_P15880_222_LLMMAGIDDCYTSAR (UniProt P15880)", "probe-labelled cysteine peptide fold change": -0.0969}, {"target": "RXRB_P28702_241_DLTYSCR (UniProt P28702)", "probe-labelled cysteine peptide fold change": -0.165}, {"target": "RPS6_P62753_83_GHSCYRPR (UniProt P62753)", "probe-labelled cysteine peptide fold change": -0.0363}, {"target": "SAFB2_Q14151_672_LQLECQR (UniProt Q14151)", "probe-labelled cysteine peptide fold change": -0.288}, {"target": "RPP38_P78345_80_CSIAVDISENLK (UniProt P78345)", "probe-labelled cysteine peptide fold change": -0.0368}, {"target": "RRP12_Q5JTH9_799_VLEEVCASPQGPGALFVQSHLEDLK (UniProt Q5JTH9)", "probe-labelled cysteine peptide fold change": 0.00703}, {"target": "RTN4IP1_Q8WWV3_236_AWDAHVTAVCSQDASELVR (UniProt Q8WWV3)", "probe-labelled cysteine peptide fold change": 0.0198}, {"target": "RPS12_P25398_92_KLGEWVGLCK (UniProt P25398)", "probe-labelled cysteine peptide fold change": -0.0286}, {"target": "RPS14_P62263_31_KEEQVISLGPQVAEGENVFGVCHIFASFNDTFVHVTDLSGK (UniProt P62263)", "probe-labelled cysteine peptide fold change": 0.12}, {"target": "RRP12_Q5JTH9_423_FFGTAVTCLLSPHSQVLTAATQSLK (UniProt Q5JTH9)", "probe-labelled cysteine peptide fold change": 0.0175}, {"target": "RSBN1_Q5VWQ0_318_DEQLCR (UniProt Q5VWQ0)", "probe-labelled cysteine peptide fold change": -0.0657}, {"target": "RPRD1A_Q96P16_151_VDENENCSSLGSPSEPPQTLDLVR (UniProt Q96P16)", "probe-labelled cysteine peptide fold change": -0.217}, {"target": "RPS6KA5_O75582_731_YKREGFCLQNVDKAPLAK (UniProt O75582)", "probe-labelled cysteine peptide fold change": -0.174}]}, {"compound": "CC1Cc2ccccc2N1C(=O)C1CCCN(C1)C(=O)CCl (mixture of isomers) [TRIM25 ligand 11 (diastereomer mixture)]", "assay": "probe-labelled cysteine peptide fold change vs DMSO (competition) (log2 fold change); higher = less target engagement (more negative = stronger competition)", "settings": "50 µM; THP-1; incubation time: 4 h", "values": [{"target": "SACS_Q9NZJ4_2869_AFCFLPLSLETGLPFHVNGHFALDSAR (UniProt Q9NZJ4)", "probe-labelled cysteine peptide fold change": 0.126}, {"target": "RPS2_P15880_182_IGKPHTVPCK (UniProt P15880)", "probe-labelled cysteine peptide fold change": -0.122}, {"target": "RRM2_P31350_270+274_DEGLHCDFACLMFK (UniProt P31350)", "probe-labelled cysteine peptide fold change": 0.117}, {"target": "RTN4_Q9NQC3_1101_YSNSALGHVNCTIK (UniProt Q9NQC3)", "probe-labelled cysteine peptide fold change": -0.215}, {"target": "RPS15A_P62244_30_RQVLIRPCSK (UniProt P62244)", "probe-labelled cysteine peptide fold change": 0.075}, {"target": "SACS_Q9NZJ4_3694_QCDVLQLLWTSCPILPEK (UniProt Q9NZJ4)", "probe-labelled cysteine peptide fold change": -0.0315}, {"target": "RRAGB_Q5VZM2_280_ATFLVISHYQCK (UniProt Q5VZM2)", "probe-labelled cysteine peptide fold change": 0.237}, {"target": "RUFY1_Q96T51_692_VCDSCHTLLLQR (UniProt Q96T51)", "probe-labelled cysteine peptide fold change": -0.0564}, {"target": "RSL24D1_Q9UHA3_6_CYFCSGPIYPGHGMMFVR (UniProt Q9UHA3)", "probe-labelled cysteine peptide fold change": 0.0357}, {"target": "RTF1_Q92541_373_WCHMPFFAK (UniProt Q92541)", "probe-labelled cysteine peptide fold change": -0.0222}, {"target": "RUFY1_Q96T51_81_RATGNLSASCGSALR (UniProt Q96T51)", "probe-labelled cysteine peptide fold change": 0.018}, {"target": "RUVBL1_Q9Y265_94_VPFCPMVGSEVYSTEIK (UniProt Q9Y265)", "probe-labelled cysteine peptide fold change": -0.0791}, {"target": "RPP40_O75818_49_VSFLIPECGILSEELK (UniProt O75818)", "probe-labelled cysteine peptide fold change": 0.161}, {"target": "RUFY1_Q96T51_351_ICSLQEEQQQLREQNELIR (UniProt Q96T51)", "probe-labelled cysteine peptide fold change": -0.465}, {"target": "RRM1_P23921_218_WFTHASPTLFNAGTNRPQLSSCFLLSMKDDSIEGIYDTLK (UniProt P23921)", "probe-labelled cysteine peptide fold change": 0.0345}, {"target": "RUNDC1_Q96C34_311_TGNGCSR (UniProt Q96C34)", "probe-labelled cysteine peptide fold change": 0.21}, {"target": "RPS4X_P62701_41_LRECLPLIIFLR (UniProt P62701)", "probe-labelled cysteine peptide fold change": 0.034}, {"target": "RRN3_Q9NYV6_329_DVCYVDGK (UniProt Q9NYV6)", "probe-labelled cysteine peptide fold change": 0.0406}, {"target": "RWDD2B_P57060_105_MAMFSLACILPFK (UniProt P57060)", "probe-labelled cysteine peptide fold change": 0.0588}, {"target": "RTN3_O95197-3_46_SCSSSCAVHDLIFWR (UniProt O95197)", "probe-labelled cysteine peptide fold change": -0.919}, {"target": "RUVBL2_Q9Y230_227_FVQCPDGELQK (UniProt Q9Y230)", "probe-labelled cysteine peptide fold change": -0.0879}, {"target": "RUFY1_Q96T51_648_DDEATHCR (UniProt Q96T51)", "probe-labelled cysteine peptide fold change": -0.214}, {"target": "RPS17_P08708_35_RVCEEIAIIPSKK (UniProt P08708)", "probe-labelled cysteine peptide fold change": 0.0725}, {"target": "SAMD9_Q5K651_605_HQDEISSQCISALSLEEINGTILK (UniProt Q5K651)", "probe-labelled cysteine peptide fold change": 0.0545}, {"target": "RPS4X_P62701_181_FDTGNLCMVTGGANLGR (UniProt P62701)", "probe-labelled cysteine peptide fold change": -0.0405}, {"target": "RPS2_P15880_222_LLMMAGIDDCYTSAR (UniProt P15880)", "probe-labelled cysteine peptide fold change": -0.0925}, {"target": "RXRB_P28702_241_DLTYSCR (UniProt P28702)", "probe-labelled cysteine peptide fold change": 0.0469}, {"target": "RPS6_P62753_83_GHSCYRPR (UniProt P62753)", "probe-labelled cysteine peptide fold change": 0.0302}, {"target": "SAFB2_Q14151_672_LQLECQR (UniProt Q14151)", "probe-labelled cysteine peptide fold change": -0.357}, {"target": "RPP38_P78345_80_CSIAVDISENLK (UniProt P78345)", "probe-labelled cysteine peptide fold change": -0.142}, {"target": "RRP12_Q5JTH9_799_VLEEVCASPQGPGALFVQSHLEDLK (UniProt Q5JTH9)", "probe-labelled cysteine peptide fold change": 0.135}, {"target": "RTN4IP1_Q8WWV3_236_AWDAHVTAVCSQDASELVR (UniProt Q8WWV3)", "probe-labelled cysteine peptide fold change": -0.333}, {"target": "RPS12_P25398_92_KLGEWVGLCK (UniProt P25398)", "probe-labelled cysteine peptide fold change": -0.162}, {"target": "RPS14_P62263_31_KEEQVISLGPQVAEGENVFGVCHIFASFNDTFVHVTDLSGK (UniProt P62263)", "probe-labelled cysteine peptide fold change": 0.0425}, {"target": "RRP12_Q5JTH9_423_FFGTAVTCLLSPHSQVLTAATQSLK (UniProt Q5JTH9)", "probe-labelled cysteine peptide fold change": 0.0309}, {"target": "RSBN1_Q5VWQ0_318_DEQLCR (UniProt Q5VWQ0)", "probe-labelled cysteine peptide fold change": -0.214}, {"target": "RPRD1A_Q96P16_151_VDENENCSSLGSPSEPPQTLDLVR (UniProt Q96P16)", "probe-labelled cysteine peptide fold change": -0.184}, {"target": "RPS6KA5_O75582_731_YKREGFCLQNVDKAPLAK (UniProt O75582)", "probe-labelled cysteine peptide fold change": 0.242}]}]}
